{"sequences": {"note": "Chains of the proteins cited; added tags and fusions are not shown.", "UniProt P31941, whole entry E72A": "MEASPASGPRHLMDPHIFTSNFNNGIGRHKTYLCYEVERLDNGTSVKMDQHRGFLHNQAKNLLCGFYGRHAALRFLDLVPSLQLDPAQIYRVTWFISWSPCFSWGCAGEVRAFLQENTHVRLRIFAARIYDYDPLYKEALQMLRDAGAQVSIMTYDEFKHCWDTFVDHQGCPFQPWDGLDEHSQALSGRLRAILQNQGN"}, "source": "paper PMC5951847", "key": {"A3A(E72A) (Homo sapiens) [1]": {"biological_target": "A3A(E72A) (Homo sapiens) (UniProt P31941)", "experiment": "fluorescence anisotropy", "details": "pH 6.0, 50 mM MES pH 6.0, 100 mM NaCl, 0.5 mM TCEP, room temperature overnight, 10 nM TAMRA-oligo, competition with 300 nM A3A(E72A), pH series: acetate 4.0-5.0, MES 5.5-6.5, recombinant protein, protein details: His6-SUMO removed by Ulp1 (untagged), label: 5' TAMRA, single-stranded DNA"}, "A3A(E72A) (Homo sapiens) [2]": {"biological_target": "A3A(E72A) (Homo sapiens) (UniProt P31941)", "experiment": "competition with a labelled probe", "details": "vs TAMRA-3A-TTCA-6A, 50 mM MES pH 6.0, 100 mM NaCl, 0.5 mM TCEP, room temperature overnight, 10 nM TAMRA-oligo, competition with 300 nM A3A(E72A), pH series: acetate 4.0-5.0, MES 5.5-6.5, recombinant protein, protein details: His6-SUMO removed by Ulp1 (untagged), label: unlabeled, single-stranded DNA"}, "[3]": {"details": "letters put together from the description"}}, "note": "For at least one entry, the source does not settle the construct or the ends of the probe. For some assays here: A weaker result is weaker than the reference pair of the same experiment. For some assays here: At least one verdict rests on a figure or table, not on a statement of the authors.", "data": [{"sequence": "AAAAAUAAAAAA [Poly A-U (5A-U-6A)]", "values": [{"measurement": "Kd", "setting": "A3A(E72A) (Homo sapiens) [1]; deoxyuridine at position 6, letters put together from the description", "value": "> 6.5", "unit": "µM"}]}, {"sequence": "AATTCAAAA [2A-TTCA-3A]", "values": [{"measurement": "binding result", "setting": "A3A(E72A) (Homo sapiens) [2]; [3]", "value": "binds more weakly"}]}, {"sequence": "AAATTCAAA [3A-TTCA-2A]", "values": [{"measurement": "binding result", "setting": "A3A(E72A) (Homo sapiens) [2]; [3]", "value": "binds more weakly"}]}, {"sequence": "AAAAAAAAAAAA [Poly A (12 A)]", "values": [{"measurement": "Kd", "setting": "A3A(E72A) (Homo sapiens) [1]", "value": "> 11", "unit": "µM"}]}, {"sequence": "AAATTCAAAAAAA [3A-TTCA-6A competitor]", "values": [{"measurement": "binding result", "setting": "A3A(E72A) (Homo sapiens) [2]", "value": "binds"}]}]}
